Results published in article PMC3520985.
No constants are given. Whether binding was seen depends on the method and setting. In cells and extracts the contact can be indirect. Some entries that bind do so weakly or less than the wild type.

Sequences of proteins named here, by UniProt entry; tags and fusion partners are left off.
UniProt Q14166: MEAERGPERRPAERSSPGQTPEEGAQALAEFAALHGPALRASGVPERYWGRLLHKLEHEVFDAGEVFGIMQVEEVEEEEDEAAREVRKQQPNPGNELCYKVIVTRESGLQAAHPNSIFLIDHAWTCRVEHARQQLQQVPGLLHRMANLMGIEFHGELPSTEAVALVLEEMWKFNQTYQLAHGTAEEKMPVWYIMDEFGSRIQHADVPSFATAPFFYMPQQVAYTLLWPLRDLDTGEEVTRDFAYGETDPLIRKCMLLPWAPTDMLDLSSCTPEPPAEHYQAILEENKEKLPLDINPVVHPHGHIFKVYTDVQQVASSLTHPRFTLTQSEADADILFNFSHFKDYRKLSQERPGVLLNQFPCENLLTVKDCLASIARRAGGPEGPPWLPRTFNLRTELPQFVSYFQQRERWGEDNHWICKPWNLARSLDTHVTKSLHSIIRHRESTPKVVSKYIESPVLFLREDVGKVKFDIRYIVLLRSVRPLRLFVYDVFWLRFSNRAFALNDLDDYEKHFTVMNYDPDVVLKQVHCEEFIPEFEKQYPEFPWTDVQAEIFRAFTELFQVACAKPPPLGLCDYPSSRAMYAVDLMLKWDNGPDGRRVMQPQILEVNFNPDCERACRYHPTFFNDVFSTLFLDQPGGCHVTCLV
UniProt Q13185: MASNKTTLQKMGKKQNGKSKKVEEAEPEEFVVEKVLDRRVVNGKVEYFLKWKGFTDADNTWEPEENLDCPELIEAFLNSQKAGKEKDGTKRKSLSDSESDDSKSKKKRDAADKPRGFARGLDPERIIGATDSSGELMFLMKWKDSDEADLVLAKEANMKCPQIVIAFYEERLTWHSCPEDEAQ

Target: Flag-hTTLL12 (human tubulin tyrosine ligase like 12, Flag-tagged) (human) (UniProt Q14166)
Assay: co-IP; nuclear extracts of hTTLL12 clones (Nuclear Complex Co-IP Kit, Active Motif); IP of M2-Flagged hTTLL12, Western blot; control IP in the presence of 500 µg M2 (Flag) peptide

HP1γ (from UniProt Q13185 1-183)
binding: binds
